{
  "source": "patent US11590108B2",
  "about": "“Pharmaceutical compositions for combination therapy” (Genfit, priority 2017, dated 2023)",
  "test_system": "TGFβ1-induced hHSC",
  "assay": "α-SMA ELISA in TGFβ1-activated human primary hepatic stellate cells (in vitro model of hepatic fibrogenesis)",
  "format": "cell-based",
  "details": "TGFβ1 1 ng/ml, 48 h, all doses (FIG. 1B, 1C)",
  "method": "Serum-deprived HSC were preincubated for 1 hour with Elafibranor (A), Cenicriviroc (B), or Bezafibrate (PPAR pan α/γ/δ) before the activation with the profibrogenic cytokine TGFβ1 (1 ng/ml).\nAfter 48 hours of incubation, the expression of α-SMA was measured by ELISA.\nThe obtained values were transformed into percentage inhibition over TGFβ1 control. Data are presented as mean (quadruplicates)±standard deviation (SD). Statistical analyses were performed by one-way ANOVA followed by Bonferroni post-hoc tests, using Sigma Plot 11.0 software. [*: p<0.05; **: p<0.01; ***: p<0.001 (comparison versus TGFβ1 1 ng/mL group)]. The curve fitting and the calculation of half maximal inhibitory concentration (IC50) were performed with XLFit software 5.3.1.3.\nThe human primary hepatic stellate cells (hHSC; Innoprot) were cultured in STeCM medium (ScienCell cat #5301) that was supplemented with 2% fetal bovine serum (FBS, ScienCell cat #0010), 1% penicillin/streptomycin (ScienCell cat #0503) and stellate cell growth supplement (SteCGS; ScienCell cat #5352). Cell-culture flasks were coated with Poly-L Lysine (Sigma cat #P4707) for a better adherence.\nFor these experiments, a checkerboard matrix was generated. […]\nThe level of α-SMA was measured using a Sandwich ELISA. […]",
  "note": "For at least one compound, name, drawing or mass did not settle the structure.",
  "data": [
    {"smiles": "CC(C)(Oc1ccc(CCNC(=O)c2ccc(Cl)cc2)cc1)C(=O)O", "note": "[Bezafibrate]", "values": [
      {"measurement": "antifibrotic effect as single agent (α-SMA)", "result": "weak antifibrotic profile"}
    ]}
  ]
}
